# Data published in the supplement of paper PMC10849652.
# The chains behind the UniProt entries cited, without tags or fusion partners. Where a name states a change or a piece, a line headed by the entry shows the natural chain unless it says otherwise.
# UniProt P11310: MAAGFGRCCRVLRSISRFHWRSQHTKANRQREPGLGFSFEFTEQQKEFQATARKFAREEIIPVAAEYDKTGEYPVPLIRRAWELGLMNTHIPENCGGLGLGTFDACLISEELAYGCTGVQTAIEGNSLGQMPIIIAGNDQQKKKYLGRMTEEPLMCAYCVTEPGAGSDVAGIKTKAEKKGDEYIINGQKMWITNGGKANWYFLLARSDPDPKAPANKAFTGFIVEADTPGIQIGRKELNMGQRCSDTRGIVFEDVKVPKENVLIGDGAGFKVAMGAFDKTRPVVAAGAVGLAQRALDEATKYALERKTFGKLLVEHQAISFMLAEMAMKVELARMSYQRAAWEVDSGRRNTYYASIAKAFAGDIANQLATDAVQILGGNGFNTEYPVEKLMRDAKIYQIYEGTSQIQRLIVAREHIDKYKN
# UniProt Q53FZ2: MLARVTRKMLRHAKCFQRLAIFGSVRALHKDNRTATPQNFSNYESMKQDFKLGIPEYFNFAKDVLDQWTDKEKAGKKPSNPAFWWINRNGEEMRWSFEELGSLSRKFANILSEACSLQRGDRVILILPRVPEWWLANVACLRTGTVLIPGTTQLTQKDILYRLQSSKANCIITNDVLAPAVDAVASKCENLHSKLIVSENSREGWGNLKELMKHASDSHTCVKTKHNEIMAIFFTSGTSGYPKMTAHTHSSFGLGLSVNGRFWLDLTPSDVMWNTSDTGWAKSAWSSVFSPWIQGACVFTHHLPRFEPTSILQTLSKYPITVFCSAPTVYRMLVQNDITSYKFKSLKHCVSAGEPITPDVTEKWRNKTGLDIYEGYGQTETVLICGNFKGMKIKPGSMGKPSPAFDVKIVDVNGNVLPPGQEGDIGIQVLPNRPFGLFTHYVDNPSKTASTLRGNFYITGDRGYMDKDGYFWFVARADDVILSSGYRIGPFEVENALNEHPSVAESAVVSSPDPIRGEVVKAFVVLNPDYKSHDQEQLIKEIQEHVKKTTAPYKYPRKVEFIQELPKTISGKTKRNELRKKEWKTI
# UniProt Q6PD74: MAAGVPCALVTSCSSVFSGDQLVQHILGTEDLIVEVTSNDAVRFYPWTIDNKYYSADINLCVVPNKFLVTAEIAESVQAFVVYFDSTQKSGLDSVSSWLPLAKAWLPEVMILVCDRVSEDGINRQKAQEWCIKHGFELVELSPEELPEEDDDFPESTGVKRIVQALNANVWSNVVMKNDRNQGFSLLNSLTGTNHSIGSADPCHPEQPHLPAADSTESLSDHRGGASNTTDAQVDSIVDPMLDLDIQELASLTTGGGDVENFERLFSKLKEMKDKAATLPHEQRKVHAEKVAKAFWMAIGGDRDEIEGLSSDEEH
# UniProt Q5T8D3: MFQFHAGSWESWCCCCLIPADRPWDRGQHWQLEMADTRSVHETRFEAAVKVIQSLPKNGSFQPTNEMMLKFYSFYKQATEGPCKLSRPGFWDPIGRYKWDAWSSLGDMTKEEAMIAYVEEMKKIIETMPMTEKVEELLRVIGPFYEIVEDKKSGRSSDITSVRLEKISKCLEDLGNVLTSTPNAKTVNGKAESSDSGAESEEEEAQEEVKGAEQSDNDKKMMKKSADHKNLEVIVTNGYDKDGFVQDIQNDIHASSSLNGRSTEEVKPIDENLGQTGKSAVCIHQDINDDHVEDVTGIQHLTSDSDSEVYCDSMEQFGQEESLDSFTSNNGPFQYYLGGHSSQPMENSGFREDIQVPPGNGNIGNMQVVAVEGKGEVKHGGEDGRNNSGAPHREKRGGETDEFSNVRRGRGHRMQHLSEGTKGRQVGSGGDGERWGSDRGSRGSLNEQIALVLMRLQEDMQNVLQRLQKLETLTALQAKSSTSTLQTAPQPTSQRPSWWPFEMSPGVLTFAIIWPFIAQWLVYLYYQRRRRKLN
# UniProt O60488: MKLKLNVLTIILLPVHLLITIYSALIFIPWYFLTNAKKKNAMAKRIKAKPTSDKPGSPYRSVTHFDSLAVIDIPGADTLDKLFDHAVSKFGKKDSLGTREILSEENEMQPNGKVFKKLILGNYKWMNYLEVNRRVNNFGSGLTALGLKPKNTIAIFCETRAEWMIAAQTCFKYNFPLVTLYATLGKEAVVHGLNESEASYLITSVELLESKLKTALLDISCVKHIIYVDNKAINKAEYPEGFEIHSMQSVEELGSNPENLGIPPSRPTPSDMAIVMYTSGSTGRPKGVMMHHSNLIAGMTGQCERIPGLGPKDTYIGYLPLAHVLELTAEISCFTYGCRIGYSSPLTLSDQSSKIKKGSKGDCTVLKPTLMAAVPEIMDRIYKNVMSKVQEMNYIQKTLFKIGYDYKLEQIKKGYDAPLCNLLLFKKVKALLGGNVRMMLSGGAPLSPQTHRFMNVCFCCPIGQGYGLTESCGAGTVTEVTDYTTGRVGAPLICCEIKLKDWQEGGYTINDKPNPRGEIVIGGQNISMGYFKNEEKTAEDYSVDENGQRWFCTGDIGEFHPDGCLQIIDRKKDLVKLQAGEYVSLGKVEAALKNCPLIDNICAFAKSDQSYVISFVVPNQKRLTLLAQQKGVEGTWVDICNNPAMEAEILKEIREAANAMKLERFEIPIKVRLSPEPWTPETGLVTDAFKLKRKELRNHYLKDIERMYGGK
# UniProt P24666: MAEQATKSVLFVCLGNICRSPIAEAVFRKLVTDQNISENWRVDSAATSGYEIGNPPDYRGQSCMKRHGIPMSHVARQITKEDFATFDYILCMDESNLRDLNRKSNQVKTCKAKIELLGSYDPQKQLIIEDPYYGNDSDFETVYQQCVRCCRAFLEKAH
# UniProt Q9BTE6: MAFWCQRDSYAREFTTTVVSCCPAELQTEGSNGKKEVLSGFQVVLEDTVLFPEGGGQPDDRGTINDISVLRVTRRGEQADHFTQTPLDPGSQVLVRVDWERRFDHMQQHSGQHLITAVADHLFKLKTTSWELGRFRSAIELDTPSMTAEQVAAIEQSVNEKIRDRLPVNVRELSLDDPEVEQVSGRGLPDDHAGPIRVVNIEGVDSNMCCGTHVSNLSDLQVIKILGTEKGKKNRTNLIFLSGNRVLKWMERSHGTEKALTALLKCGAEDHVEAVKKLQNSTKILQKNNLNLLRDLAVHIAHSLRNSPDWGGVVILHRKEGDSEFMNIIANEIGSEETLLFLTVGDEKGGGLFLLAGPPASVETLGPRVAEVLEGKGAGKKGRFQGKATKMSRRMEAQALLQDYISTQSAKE
# UniProt P49748: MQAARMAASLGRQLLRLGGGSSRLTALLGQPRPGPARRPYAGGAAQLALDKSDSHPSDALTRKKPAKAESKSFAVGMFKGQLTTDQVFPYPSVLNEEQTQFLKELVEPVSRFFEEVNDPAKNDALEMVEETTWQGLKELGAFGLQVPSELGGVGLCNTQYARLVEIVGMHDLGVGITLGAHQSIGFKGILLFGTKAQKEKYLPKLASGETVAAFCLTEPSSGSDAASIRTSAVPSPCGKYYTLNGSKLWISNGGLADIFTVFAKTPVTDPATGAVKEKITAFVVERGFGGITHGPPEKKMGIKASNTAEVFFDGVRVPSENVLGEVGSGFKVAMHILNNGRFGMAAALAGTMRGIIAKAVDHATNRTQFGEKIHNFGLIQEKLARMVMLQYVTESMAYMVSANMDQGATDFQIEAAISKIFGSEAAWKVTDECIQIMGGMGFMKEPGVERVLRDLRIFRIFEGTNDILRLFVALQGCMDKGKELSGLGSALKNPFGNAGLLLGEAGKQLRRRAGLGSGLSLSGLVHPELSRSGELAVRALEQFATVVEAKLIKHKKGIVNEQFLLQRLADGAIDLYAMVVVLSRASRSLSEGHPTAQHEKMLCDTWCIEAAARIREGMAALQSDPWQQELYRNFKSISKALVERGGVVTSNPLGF
# UniProt Q13444: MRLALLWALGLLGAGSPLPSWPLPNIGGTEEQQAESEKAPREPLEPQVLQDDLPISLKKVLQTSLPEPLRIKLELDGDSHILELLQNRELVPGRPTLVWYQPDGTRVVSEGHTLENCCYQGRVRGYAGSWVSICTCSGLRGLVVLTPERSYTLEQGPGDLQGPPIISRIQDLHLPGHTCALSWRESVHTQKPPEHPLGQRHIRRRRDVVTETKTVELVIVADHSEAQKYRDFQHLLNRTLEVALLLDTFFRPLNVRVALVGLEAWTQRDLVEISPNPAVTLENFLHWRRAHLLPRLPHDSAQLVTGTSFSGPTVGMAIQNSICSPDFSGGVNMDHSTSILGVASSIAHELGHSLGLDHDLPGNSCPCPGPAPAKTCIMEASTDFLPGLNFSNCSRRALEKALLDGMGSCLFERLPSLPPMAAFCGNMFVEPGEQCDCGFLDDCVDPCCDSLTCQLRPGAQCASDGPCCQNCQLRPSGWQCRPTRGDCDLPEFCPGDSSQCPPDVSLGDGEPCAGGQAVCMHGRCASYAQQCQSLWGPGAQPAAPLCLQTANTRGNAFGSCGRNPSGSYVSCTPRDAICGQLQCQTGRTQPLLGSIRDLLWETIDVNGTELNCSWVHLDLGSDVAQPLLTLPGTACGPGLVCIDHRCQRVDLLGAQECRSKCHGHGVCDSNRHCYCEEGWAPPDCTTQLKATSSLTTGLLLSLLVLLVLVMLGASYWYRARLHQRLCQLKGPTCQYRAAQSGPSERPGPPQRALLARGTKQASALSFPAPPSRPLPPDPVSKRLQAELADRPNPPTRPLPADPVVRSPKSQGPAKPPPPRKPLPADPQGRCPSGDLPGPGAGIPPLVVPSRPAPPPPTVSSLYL
# UniProt Q13685: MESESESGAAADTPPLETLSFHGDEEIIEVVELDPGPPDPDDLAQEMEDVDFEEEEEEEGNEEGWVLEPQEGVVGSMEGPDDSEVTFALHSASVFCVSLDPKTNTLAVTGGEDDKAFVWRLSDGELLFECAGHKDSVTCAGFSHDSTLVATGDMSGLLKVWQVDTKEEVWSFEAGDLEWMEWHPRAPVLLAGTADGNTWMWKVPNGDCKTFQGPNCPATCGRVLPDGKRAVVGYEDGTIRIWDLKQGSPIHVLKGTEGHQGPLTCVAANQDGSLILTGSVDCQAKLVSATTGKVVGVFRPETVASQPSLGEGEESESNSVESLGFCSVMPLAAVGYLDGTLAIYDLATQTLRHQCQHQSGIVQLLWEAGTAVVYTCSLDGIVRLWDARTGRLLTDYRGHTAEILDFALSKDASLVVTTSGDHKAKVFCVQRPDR
# UniProt Q8WTS1: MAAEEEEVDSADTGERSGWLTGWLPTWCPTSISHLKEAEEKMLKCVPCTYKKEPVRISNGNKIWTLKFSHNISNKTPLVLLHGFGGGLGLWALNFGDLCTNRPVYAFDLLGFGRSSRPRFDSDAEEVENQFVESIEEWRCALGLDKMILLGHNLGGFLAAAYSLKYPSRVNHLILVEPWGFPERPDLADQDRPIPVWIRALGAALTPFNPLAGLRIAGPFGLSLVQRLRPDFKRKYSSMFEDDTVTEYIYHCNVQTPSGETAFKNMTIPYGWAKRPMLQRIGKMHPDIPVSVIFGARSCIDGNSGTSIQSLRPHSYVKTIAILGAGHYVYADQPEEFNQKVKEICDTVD
# UniProt P53396: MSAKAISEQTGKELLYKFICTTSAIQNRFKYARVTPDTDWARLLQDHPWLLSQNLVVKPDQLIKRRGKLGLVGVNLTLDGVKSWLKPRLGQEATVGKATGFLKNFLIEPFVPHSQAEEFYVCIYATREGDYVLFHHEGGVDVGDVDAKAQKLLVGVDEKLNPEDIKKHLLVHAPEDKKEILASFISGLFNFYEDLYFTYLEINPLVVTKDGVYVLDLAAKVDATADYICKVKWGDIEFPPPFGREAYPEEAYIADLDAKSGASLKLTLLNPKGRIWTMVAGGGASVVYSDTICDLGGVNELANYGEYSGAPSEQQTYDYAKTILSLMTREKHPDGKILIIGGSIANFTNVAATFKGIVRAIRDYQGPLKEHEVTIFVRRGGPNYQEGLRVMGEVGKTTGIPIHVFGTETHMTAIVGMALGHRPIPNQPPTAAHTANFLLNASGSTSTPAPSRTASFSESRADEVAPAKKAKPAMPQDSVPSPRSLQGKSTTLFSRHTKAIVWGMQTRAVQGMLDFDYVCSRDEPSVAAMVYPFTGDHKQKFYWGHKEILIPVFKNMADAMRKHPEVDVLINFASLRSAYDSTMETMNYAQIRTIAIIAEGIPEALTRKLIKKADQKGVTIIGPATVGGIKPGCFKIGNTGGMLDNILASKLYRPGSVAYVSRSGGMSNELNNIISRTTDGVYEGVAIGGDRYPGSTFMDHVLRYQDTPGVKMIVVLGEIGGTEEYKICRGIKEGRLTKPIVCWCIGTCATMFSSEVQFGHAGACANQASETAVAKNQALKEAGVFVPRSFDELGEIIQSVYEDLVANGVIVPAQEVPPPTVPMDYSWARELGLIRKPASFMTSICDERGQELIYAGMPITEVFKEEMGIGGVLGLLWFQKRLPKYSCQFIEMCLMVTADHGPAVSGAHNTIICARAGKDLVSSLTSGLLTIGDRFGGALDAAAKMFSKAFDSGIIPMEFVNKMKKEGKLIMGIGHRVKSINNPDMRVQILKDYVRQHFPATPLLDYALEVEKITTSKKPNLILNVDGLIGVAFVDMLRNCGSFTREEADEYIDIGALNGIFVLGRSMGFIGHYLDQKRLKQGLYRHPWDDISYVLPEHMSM
# The other results are listed elsewhere or left out. Residues, ends and D or L forms follow the SMILES beside them. *: point of attachment. Cbz = O=C(OCc1ccccc1)*
# Assays:
# Test in all cases: log2 fold change, soluble protein after heating vs DMSO (PISA); higher = thermal stabilisation; K562 cells, 10 uM, 30 min; active = over 0.2 and 3.5 SD of the protein, either way, in both replicates (recomputed)
# erlotinib = compound: C#Cc1cccc(Nc2ncnc3cc(OCCOC)c(OCCOC)cc23)c1 [erlotinib]
# In short: (§1)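 K562 cells (2×10^6 cells/mL) were treated with 10 μM compound for 30 min, and aliquots were heated for 3 min over 48°C-58°C. Pooled aliquots were extracted in PBS with 0.5% NP-40 at 4°C, and the supernatant after 21,000xg for 90 min was measured by TMTpro 16plex LC-MS/MS with channel sums equalised. Reported thermal stability, relative to control samples and from duplicates, is a log2 fold change.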
# [1] = compound: C/C(=N\NC(=O)C1=CC(=CC=C1)S(=O)(=O)N2CCOCC2)/C3=C(C=CC(=C3)Cl)O
# In short: as §1
# [2] = compound: C1=CC(=C(C=C1Cl)C2=NC3=NC=CN=C3C(=N2)NC4=CC=NC=C4)F
# In short: as §1
# [3] = compound: C1=CC(=CC=C1C2=NC3=C(N2)C=C(C=C3)C(=O)N)OC4=CC=C(C=C4)Cl
# In short: as §1
# [4] = compound: C1=CC2=C(C=CC(=C2)/C=C\3/C(=O)NC(=NCC4=CC=CS4)S3)N=C1
# In short: as §1
# [5] = compound: C1=CC2=NC=CN=C2C=C1/C=C/3\C(=O)NC(=O)S3
# In short: as §1
# [6] = compound: C1=CC=C(C=C1)C2=NC(=C(N2)C3=CC=NC=C3)C4=CC(=C(C=C4)Cl)O
# In short: as §1
# [7] = compound: C1=CC=C2C(=C1)C3=NNC4=CC=CC(=C43)C2=O
# In short: as §1
# [8] = compound: C1CCN(C1)C(=O)NC2=CC=CC(=C2)NC3=NC=C(C(=N3)NCCC4=CN=CN4)Br
# In short: as §1
# [9] = compound: C1CN(CCC1(CC2=CC=C(C=C2)Cl)N)C3=NC=NC4=C3C=CN4
# In short: as §1
# IRAK-1-4 Inhibitor I = compound: C1COCCN1CCN2C3=CC=CC=C3N=C2NC(=O)C4=CC(=CC=C4)[N+](=O)[O-] [IRAK-1-4 Inhibitor I]
# In short: as §1
# ibrutinib = compound: C=CC(=O)N1CCC[C@@H](n2nc(-c3ccc(Oc4ccccc4)cc3)c3c(N)ncnc32)C1 [ibrutinib]
# In short: as §1
# [10] = compound: CC(=O)c1cnc2ccc(-c3cc(Cl)c(O)c(Cl)c3)nc2c1N[C@H]1CC[C@H](CN(C)C)CC1
# In short: as §1
# ralimetinib = compound: CC(C)(C)Cn1c(N)nc2ccc(-c3[nH]c(C(C)(C)C)nc3-c3ccc(F)cc3)nc21 [ralimetinib]
# In short: as §1
# [11] = compound: CC(C)(O)CC(=O)NCCn1ccc2ncnc(Nc3ccc(Oc4cccc(C(F)(F)F)c4)c(Cl)c3)c21
# In short: as §1
# [12] = compound: CC(C)C1=C2N=C(C=C(N2N=C1)NCC3=CC=CC=C3)NCCCCCCN
# In short: as §1
# [13] = compound: CC(C)C[C@@H](C=O)NC(=O)[C@H](CC(C)C)NC(=O)[C@H](CC(C)C)NC(=O)OCc1ccccc1
# In short: as §1
# pinometostat = compound: CC(C)N(C[C@H]1O[C@@H](n2cnc3c(N)ncnc32)[C@H](O)[C@@H]1O)[C@H]1C[C@@H](CCc2nc3cc(C(C)(C)C)ccc3[nH]2)C1 [pinometostat]
# In short: as §1
# [14] = compound: CC1=C(C2=C(C=C1)C(=O)C3=CC=CC=C3N2CCCN)C
# In short: as §1
# [15] = compound: CC1=C(C(CC(=O)N1)C2=CC=C(C=C2)C(F)(F)F)C(=O)NC3=C(C=C4C(=C3)C=NN4)F
# In short: as §1
Target,log2 fold change (erlotinib),log2 fold change [1],log2 fold change [2],log2 fold change [3],log2 fold change [4],log2 fold change [5],log2 fold change [6],log2 fold change [7],log2 fold change [8],log2 fold change [9],log2 fold change (IRAK-1-4 Inhibitor I),log2 fold change (ibrutinib),log2 fold change [10],log2 fold change (ralimetinib),log2 fold change [11],log2 fold change [12],log2 fold change [13],log2 fold change (pinometostat),log2 fold change [14],log2 fold change [15]
ACP2 (UniProt P11117),inactive: 0.031,inactive: 0.004,inactive: 0.061,inactive: 0.019,inactive: 0.019,inactive: -0.01,inactive: 0.022,inactive: -0.022,inactive: -0.003,inactive: 0.045,inactive: 0.047,inactive: 0.033,inactive: -0.012,inactive: -0.012,inactive: -0.03,inactive: -0.205,inactive: -0.026,inactive: 0.027,inactive: -0.006,
ABCE1 (UniProt H0Y990),inactive: -0.047,inactive: -0.06,inactive: 0.304,inactive: -0.167,inactive: -0.014,inactive: -0.043,,inactive: 0.037,inactive: 0.054,inactive: 0.034,,inactive: -0.087,inactive: 0.111,,inactive: -0.04,inactive: 0.151,,,inactive: 0.042,inactive: 0.066
ACADM isoform 2 (UniProt P11310),inactive: -0.015,inactive: 0.014,inactive: 0.013,inactive: 0.149,inactive: 0.044,inactive: 0.002,inactive: 0.059,inactive: -0.001,inactive: 0.008,inactive: 0.067,inactive: 0.028,inactive: 0.034,inactive: -0.013,inactive: -0.068,inactive: -0.043,inactive: 0.051,inactive: -0.001,inactive: -0.085,inactive: 0,
ACSM3 (UniProt Q53FZ2),inactive: 0.078,inactive: 0.01,inactive: 0.076,inactive: -0.235,inactive: 0.088,inactive: -0.009,inactive: -0.078,inactive: -0.072,inactive: 0.009,inactive: 0.01,inactive: 0,inactive: -0.021,inactive: -0.11,inactive: -0.003,active: -0.397,inactive: -0.155,inactive: -0.086,inactive: 0.046,inactive: 0.041,
AAGAB (UniProt Q6PD74),inactive: 0.251,inactive: 0.088,inactive: 0.079,inactive: -0.068,inactive: -0.059,inactive: 0.027,inactive: 0.066,inactive: 0.01,inactive: 0.067,inactive: 0.054,inactive: -0.016,inactive: 0.026,inactive: 0.077,inactive: 0.065,inactive: -0.146,inactive: -0.099,inactive: 0,inactive: 0.147,inactive: -0.003,
ACBD5 (UniProt Q5T8D3),inactive: 0.232,inactive: 0.216,inactive: -0.228,inactive: -0.101,inactive: -0.047,,inactive: -0.046,inactive: -0.185,inactive: -0.003,inactive: 0.059,inactive: -0.179,,inactive: -0.002,inactive: -0.044,inactive: -0.028,inactive: 0.094,inactive: 0.039,inactive: 0.107,inactive: 0.329,
ACSL4 (UniProt O60488),inactive: 0.16,inactive: 0.02,inactive: -0.021,active: 0.727,inactive: 0.13,inactive: 0.024,inactive: 0.226,active: 0.357,inactive: -0.058,inactive: -0.002,inactive: -0.067,inactive: 0.001,inactive: 0,inactive: 0.049,inactive: -0.237,active: -0.443,inactive: 0.038,inactive: 0.098,inactive: 0,
ACP1 (UniProt P24666),inactive: 0.149,inactive: 0.06,inactive: 0.035,inactive: -0.066,inactive: 0.224,inactive: -0.059,,inactive: 0.109,inactive: -0.001,inactive: -0.015,inactive: -0.027,inactive: -0.073,inactive: -0.083,,inactive: -0.238,inactive: -0.071,,inactive: 0.107,inactive: -0.087,
AARSD1 isoform 3 (UniProt Q9BTE6),inactive: 0.05,active: -0.736,inactive: 0.113,inactive: -0.014,inactive: -0.027,inactive: 0.008,inactive: -0.015,inactive: 0.053,inactive: -0.006,inactive: -0.086,inactive: 0.002,inactive: -0.074,inactive: 0.029,inactive: -0.038,inactive: -0.017,inactive: -0.177,inactive: 0.069,inactive: -0.01,inactive: -0.126,
ABCC5 (UniProt O15440),inactive: -0.027,inactive: 0.035,inactive: 0.064,inactive: -0.004,inactive: 0.059,inactive: -0.048,inactive: -0.014,inactive: -0.071,inactive: -0.037,inactive: 0.129,inactive: -0.035,inactive: -0.082,inactive: 0,inactive: 0.001,inactive: -0.121,inactive: 0.119,inactive: 0.046,inactive: 0.086,inactive: 0.116,
ACADVL isoform 3 (UniProt P49748),inactive: 0.008,inactive: 0.015,inactive: 0.035,active: 0.291,inactive: 0.023,inactive: 0.055,inactive: 0.027,inactive: 0.155,inactive: 0.025,inactive: 0.043,inactive: 0.038,inactive: -0.002,inactive: 0.005,inactive: -0.015,inactive: -0.016,inactive: -0.013,inactive: -0.025,inactive: -0.067,inactive: 0.002,
ACTRT1 (UniProt Q8TDG2),inactive: 0.159,inactive: -0.02,inactive: -0.101,inactive: -0.05,inactive: 0.251,inactive: -0.008,,inactive: -0.158,,,,inactive: -0.127,inactive: -0.037,,inactive: -0.024,inactive: 0.1,,,,
ADAM15 (UniProt Q13444),inactive: 0.314,inactive: 0.154,inactive: 0.03,inactive: -0.223,inactive: 0.035,inactive: 0.068,inactive: 0.043,inactive: 0.08,inactive: -0.042,inactive: 0.013,inactive: -0.026,inactive: 0.045,inactive: -0.199,inactive: 0.024,inactive: 0.008,inactive: 0.14,inactive: 0.053,inactive: 0.046,inactive: 0.033,
ABCD1 (UniProt P33897),inactive: 0.053,inactive: 0.068,inactive: -0.178,inactive: -0.034,inactive: 0.071,,,inactive: 0.01,,,inactive: -0.036,,inactive: 0.007,,inactive: -0.098,inactive: 0.017,,inactive: 0.021,,
AAR2 (UniProt Q9Y312),inactive: 0.075,inactive: 0.089,inactive: -0.113,inactive: 0.057,inactive: 0.103,inactive: 0.049,inactive: -0.003,inactive: -0.137,inactive: -0.008,inactive: 0.043,inactive: 0.039,inactive: 0.02,inactive: 0.021,inactive: -0.002,inactive: -0.062,inactive: -0.012,inactive: 0.104,inactive: 0.024,inactive: -0.035,
AAMP (UniProt Q13685),inactive: 0.025,inactive: -0.032,inactive: 0.006,inactive: -0.003,inactive: 0.042,inactive: 0.074,inactive: -0.007,inactive: 0.003,inactive: -0.006,inactive: 0.085,inactive: 0.007,inactive: 0.023,inactive: 0.064,inactive: 0.031,inactive: 0.04,inactive: -0.051,inactive: -0.02,inactive: 0.007,active: 0.225,
ABHD5 (UniProt Q8WTS1),inactive: 0.007,inactive: 0.024,,inactive: -0.083,inactive: 0.108,inactive: -0.141,inactive: -0.073,inactive: -0.044,inactive: -0.179,inactive: 0.043,inactive: 0.065,inactive: 0.098,inactive: -0.12,inactive: 0.095,,inactive: -0.084,inactive: 0.096,inactive: -0.018,inactive: -0.335,
ACLY isoform 2 (UniProt P53396),inactive: -0.01,inactive: 0.055,inactive: 0.033,inactive: -0.016,inactive: -0.123,inactive: -0.133,inactive: 0.027,inactive: 0.067,inactive: -0.018,inactive: -0.082,,inactive: 0.087,inactive: 0.177,inactive: -0.13,inactive: -0.033,inactive: 0.055,inactive: 0.012,,inactive: -0.204,inactive: 0.031

# Taken from above.
# log2 fold change [4] with ACADVL isoform 3 (UniProt P49748) is entered as inactive: 0.023
# log2 fold change (erlotinib) with ACP2 (UniProt P11117) is entered as inactive: 0.031
